doi:10.1101/2021.01.08.425872
Results are given in words; binding and its absence hold for the method and conditions named. For part of these data: Binding seen in cells or lysates may run through a third protein. Some entries that bind do so weakly or less than the wild type. For part of these data: Where a sequence is shown, tags or fusion partners need not be part of it.

Sequences of proteins named here, by UniProt entry; tags and fusion partners are left off. A change or cut given only in a name is not applied to a line headed by its entry. A line that says so, or that is headed by a name, gives the form on record, which may keep a tag or linker.
UniProt O82480: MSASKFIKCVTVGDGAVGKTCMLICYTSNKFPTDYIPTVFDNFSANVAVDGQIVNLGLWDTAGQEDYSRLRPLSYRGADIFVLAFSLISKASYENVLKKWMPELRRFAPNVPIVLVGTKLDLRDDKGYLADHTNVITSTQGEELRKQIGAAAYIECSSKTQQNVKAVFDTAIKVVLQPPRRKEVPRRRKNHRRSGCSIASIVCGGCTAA
YN-rop9^CA (O82480, form named): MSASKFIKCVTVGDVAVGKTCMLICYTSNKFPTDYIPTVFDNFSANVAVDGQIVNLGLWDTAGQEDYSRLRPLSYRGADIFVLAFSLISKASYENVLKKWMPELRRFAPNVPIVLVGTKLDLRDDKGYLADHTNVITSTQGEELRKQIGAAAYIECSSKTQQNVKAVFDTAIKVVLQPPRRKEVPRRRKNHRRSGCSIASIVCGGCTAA
UniProt O82481: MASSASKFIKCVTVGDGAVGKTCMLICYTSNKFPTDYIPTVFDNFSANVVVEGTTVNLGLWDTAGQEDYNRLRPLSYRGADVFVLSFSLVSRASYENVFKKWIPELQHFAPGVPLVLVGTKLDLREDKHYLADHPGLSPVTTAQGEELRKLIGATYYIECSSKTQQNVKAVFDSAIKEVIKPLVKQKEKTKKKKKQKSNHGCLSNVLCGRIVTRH
UniProt Q38937: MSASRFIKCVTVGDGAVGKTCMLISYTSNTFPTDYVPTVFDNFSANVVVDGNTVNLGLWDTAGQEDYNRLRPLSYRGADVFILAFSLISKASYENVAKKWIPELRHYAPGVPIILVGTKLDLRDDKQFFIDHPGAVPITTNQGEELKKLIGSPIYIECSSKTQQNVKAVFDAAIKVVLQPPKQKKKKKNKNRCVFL
UniProt Q38919: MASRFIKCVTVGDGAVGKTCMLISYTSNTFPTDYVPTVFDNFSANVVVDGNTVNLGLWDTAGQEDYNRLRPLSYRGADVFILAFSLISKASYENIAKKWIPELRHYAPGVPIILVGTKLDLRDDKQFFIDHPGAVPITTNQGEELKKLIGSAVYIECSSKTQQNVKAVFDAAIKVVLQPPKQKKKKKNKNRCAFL

Experiments:
YN-rop9^CA = YN-rop9^CA (UniProt O82480); assay: split reporter
YN-ROP11 = YN-ROP11 (UniProt O82481); assay: split reporter
YN-ROP9 = YN-ROP9 (UniProt O82480); assay: split reporter
YN-ROP4 = YN-ROP4 (UniProt Q38937); assay: split reporter
YN-ROP2 = YN-ROP2 (UniProt Q38919); assay: split reporter
[1] = molecular target: ROP4 in pGBT9.BS (pGBT ROP4) (UniProt Q38937); assay: two-hybrid
[2] = molecular target: ROP11 in pGBT9.BS (pGBT ROP11) (UniProt O82481); assay: two-hybrid
[3] = molecular target: ROP9 in pGBT9.BS (pGBT ROP9) (UniProt O82480); assay: two-hybrid
[4] = molecular target: ROP2 in pGBT9.BS (pGBT ROP2) (UniProt Q38919); assay: two-hybrid

Measured: binding

B1: ICR2 fused at its carboxy terminus to the C-terminal half of YFP (ICR2-YC) (protein, UniProt Q9ZQC5 56-583)
chain: ADRRSPRTPVNEIQKKRTGKTPELASQISQLQEELKKAKEQLSASEALKKEAQDQAEETKQQLMEINASEDSRIDELRKLSQERDKAWQSELEAMQRQHAMDSAALSSTMNEVQKLKAQLSESENVENLRMELNETLSLVEKLRGELFDAKEGEAQAHEIVSGTEKQLEIANLTLEMLRSDGMKMSEACNSLTTELEQSKSEVRSLEQLVRQLEEEDEARGNANGDSSSVEELKEEINVARQEISQLKSAVEVTERRYHEEYIQSTLQIRTAYEQVDEVKSGYAQREAELGEELKKTKAERDSLHERLMDKEAKLRILVDENEILNSKIKEKEEVYLNLENSLNQNEPEDTGELKKLESDVMELRANLMDKEMELQSVMSQYESLRSEMETMQSEKNKAIDEALAKLGSLTEEADKSGKRAENATEQLGAAQVTNTELEAELRRLKVQCDQWRKAAEAAATMLSGGNNNNNSNGKYVERTGSLESPLRRRNVNMSPYMGETDDELSSPKKKNGSMLKKIGVLLKKSQK
binds: YN-rop9^CA | YN-ROP11 | YN-ROP9 | YN-ROP4 | YN-ROP2

B2: ICR2 in pGAD GH (pGAD-ICR2) (protein, UniProt Q9ZQC5 1-583)
chain: MQTPKPRPGSLEVPQKKSPASTPKTARKLKTSESDPVSSPNTKIRTPKTQSPKVVADRRSPRTPVNEIQKKRTGKTPELASQISQLQEELKKAKEQLSASEALKKEAQDQAEETKQQLMEINASEDSRIDELRKLSQERDKAWQSELEAMQRQHAMDSAALSSTMNEVQKLKAQLSESENVENLRMELNETLSLVEKLRGELFDAKEGEAQAHEIVSGTEKQLEIANLTLEMLRSDGMKMSEACNSLTTELEQSKSEVRSLEQLVRQLEEEDEARGNANGDSSSVEELKEEINVARQEISQLKSAVEVTERRYHEEYIQSTLQIRTAYEQVDEVKSGYAQREAELGEELKKTKAERDSLHERLMDKEAKLRILVDENEILNSKIKEKEEVYLNLENSLNQNEPEDTGELKKLESDVMELRANLMDKEMELQSVMSQYESLRSEMETMQSEKNKAIDEALAKLGSLTEEADKSGKRAENATEQLGAAQVTNTELEAELRRLKVQCDQWRKAAEAAATMLSGGNNNNNSNGKYVERTGSLESPLRRRNVNMSPYMGETDDELSSPKKKNGSMLKKIGVLLKKSQK
binds: [1] | [2] | [3] | [4]
